# Assay results reported in the supplement of paper PMC12819154, “High-throughput peptide-centric local stability assay extends protein–ligand identification to membrane proteins, tissues and bacteria” (Nature Structural & Molecular Biology, 2025).
# Sequences of proteins named here, by UniProt entry; tags and fusion partners are left off. A change or cut given only in a name is not applied to a line headed by its entry.
# UniProt Q92502: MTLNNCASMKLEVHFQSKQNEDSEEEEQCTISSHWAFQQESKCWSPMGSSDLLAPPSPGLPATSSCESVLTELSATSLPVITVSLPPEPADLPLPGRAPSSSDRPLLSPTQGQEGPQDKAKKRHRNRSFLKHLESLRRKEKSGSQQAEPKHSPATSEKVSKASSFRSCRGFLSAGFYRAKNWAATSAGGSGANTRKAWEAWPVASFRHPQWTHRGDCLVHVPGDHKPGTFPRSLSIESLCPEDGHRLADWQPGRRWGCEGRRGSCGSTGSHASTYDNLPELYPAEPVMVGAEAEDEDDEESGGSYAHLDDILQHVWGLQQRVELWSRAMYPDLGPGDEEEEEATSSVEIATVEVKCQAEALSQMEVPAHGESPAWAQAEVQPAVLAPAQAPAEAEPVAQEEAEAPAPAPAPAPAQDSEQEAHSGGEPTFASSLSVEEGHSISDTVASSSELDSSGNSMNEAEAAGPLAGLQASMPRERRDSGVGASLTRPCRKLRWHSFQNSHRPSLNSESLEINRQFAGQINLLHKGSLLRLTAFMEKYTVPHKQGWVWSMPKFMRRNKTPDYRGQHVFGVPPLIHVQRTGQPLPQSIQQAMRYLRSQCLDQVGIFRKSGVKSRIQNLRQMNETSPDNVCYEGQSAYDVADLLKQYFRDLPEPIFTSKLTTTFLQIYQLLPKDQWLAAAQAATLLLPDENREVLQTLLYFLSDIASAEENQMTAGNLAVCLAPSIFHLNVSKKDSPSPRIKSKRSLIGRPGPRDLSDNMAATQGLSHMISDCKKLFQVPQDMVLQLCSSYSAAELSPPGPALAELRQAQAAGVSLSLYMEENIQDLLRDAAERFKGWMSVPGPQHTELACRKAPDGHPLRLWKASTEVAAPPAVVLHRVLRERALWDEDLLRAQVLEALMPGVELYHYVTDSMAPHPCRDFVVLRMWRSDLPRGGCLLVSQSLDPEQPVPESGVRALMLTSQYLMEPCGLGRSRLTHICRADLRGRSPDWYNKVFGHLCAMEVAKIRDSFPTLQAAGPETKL
# UniProt Q8WU58: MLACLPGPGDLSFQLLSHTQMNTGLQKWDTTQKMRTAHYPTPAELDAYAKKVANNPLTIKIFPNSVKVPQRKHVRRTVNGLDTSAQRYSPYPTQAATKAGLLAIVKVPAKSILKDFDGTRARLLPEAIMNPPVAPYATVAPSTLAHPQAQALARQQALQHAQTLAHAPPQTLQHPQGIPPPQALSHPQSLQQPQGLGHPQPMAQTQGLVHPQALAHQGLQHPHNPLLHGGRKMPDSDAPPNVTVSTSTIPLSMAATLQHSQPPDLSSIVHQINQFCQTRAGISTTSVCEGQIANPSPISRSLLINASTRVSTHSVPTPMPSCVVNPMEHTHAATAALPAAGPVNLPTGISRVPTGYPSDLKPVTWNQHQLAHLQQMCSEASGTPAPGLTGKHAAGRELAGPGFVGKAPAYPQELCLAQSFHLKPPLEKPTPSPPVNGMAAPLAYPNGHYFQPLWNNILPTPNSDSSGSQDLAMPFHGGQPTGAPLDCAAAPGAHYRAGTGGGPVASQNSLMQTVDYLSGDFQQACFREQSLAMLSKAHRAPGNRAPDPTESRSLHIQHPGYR
# UniProt Q8WTR2: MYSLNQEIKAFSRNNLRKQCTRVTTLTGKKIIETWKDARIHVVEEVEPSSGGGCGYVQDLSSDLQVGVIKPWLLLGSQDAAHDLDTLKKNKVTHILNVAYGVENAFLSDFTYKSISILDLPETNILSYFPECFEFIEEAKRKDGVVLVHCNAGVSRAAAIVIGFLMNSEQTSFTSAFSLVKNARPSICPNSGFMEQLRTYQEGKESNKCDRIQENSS
# UniProt Q8WVB3: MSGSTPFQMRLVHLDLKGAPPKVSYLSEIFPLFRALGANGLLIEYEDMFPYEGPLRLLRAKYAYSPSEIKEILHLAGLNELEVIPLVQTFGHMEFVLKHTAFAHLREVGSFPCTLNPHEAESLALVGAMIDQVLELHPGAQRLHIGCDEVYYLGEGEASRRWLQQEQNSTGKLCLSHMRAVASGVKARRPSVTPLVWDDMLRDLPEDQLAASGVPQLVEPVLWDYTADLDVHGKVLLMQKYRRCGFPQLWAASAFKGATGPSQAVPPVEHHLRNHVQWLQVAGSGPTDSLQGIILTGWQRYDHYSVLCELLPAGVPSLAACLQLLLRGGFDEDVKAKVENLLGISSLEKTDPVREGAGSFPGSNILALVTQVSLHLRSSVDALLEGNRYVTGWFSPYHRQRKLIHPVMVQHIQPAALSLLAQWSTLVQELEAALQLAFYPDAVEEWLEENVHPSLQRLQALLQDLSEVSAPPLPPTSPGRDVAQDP
# UniProt Q8WVJ2: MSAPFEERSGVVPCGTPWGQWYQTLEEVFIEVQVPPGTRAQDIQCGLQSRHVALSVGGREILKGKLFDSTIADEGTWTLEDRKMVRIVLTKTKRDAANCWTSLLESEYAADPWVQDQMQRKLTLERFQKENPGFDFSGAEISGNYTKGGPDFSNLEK
# UniProt Q8WV74: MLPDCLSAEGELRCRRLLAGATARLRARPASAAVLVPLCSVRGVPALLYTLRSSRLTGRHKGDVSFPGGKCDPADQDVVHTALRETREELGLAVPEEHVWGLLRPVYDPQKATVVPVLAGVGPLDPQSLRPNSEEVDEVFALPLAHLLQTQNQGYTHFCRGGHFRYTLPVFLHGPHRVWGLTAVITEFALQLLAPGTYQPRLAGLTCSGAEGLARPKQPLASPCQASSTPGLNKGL
# UniProt Q8WXF0: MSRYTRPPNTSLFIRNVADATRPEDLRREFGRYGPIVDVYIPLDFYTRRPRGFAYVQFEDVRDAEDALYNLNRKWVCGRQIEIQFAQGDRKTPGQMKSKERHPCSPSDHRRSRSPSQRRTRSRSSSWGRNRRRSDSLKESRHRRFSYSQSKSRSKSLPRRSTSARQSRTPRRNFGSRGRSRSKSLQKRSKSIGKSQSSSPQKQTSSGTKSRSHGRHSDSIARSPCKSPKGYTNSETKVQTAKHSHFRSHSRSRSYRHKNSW
# UniProt Q8WUA4: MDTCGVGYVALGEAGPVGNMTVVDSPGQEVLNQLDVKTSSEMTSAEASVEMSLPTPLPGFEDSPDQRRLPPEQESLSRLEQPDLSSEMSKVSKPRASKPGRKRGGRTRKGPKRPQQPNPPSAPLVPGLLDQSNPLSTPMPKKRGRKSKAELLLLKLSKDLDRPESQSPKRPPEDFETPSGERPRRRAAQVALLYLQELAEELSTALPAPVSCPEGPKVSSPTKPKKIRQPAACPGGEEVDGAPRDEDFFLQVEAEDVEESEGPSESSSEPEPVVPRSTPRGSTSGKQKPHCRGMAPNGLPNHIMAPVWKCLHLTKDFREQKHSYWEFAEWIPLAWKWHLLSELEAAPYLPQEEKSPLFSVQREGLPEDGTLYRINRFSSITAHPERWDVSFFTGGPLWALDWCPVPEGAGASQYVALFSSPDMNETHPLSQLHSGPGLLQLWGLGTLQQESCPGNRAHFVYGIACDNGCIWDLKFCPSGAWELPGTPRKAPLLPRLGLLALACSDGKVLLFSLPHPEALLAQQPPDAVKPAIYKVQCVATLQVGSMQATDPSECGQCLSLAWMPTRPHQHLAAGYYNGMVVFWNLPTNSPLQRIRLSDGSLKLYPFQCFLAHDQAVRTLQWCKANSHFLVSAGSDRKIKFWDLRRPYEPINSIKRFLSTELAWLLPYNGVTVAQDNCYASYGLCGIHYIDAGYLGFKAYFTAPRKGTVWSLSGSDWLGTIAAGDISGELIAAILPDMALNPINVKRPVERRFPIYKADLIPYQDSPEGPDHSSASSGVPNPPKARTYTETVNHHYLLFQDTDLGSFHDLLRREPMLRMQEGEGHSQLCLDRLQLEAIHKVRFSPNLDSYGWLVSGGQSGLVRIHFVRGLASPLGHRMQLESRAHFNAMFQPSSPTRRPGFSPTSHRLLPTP
# UniProt Q92551: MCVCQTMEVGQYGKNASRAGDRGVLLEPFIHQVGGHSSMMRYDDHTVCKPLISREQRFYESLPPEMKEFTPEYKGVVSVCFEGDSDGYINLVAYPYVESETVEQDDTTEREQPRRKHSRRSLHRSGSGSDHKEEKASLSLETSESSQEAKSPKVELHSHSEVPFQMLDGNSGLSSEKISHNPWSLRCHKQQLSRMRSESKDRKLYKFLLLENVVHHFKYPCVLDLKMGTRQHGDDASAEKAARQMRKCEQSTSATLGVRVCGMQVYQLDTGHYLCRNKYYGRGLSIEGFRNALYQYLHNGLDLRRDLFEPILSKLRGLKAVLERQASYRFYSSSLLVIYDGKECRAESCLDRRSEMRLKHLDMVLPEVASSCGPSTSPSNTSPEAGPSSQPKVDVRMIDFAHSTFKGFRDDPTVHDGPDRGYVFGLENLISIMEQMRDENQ
# UniProt Q8TDX7: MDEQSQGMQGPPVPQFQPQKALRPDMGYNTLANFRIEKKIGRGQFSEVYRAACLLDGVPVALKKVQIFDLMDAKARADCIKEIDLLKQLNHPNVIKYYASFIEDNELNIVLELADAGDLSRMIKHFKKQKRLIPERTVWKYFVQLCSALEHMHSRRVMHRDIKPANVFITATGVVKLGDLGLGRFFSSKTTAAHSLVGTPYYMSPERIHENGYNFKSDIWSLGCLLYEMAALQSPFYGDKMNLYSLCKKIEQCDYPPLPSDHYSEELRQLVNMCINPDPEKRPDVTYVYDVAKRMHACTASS
# UniProt Q8WUA2: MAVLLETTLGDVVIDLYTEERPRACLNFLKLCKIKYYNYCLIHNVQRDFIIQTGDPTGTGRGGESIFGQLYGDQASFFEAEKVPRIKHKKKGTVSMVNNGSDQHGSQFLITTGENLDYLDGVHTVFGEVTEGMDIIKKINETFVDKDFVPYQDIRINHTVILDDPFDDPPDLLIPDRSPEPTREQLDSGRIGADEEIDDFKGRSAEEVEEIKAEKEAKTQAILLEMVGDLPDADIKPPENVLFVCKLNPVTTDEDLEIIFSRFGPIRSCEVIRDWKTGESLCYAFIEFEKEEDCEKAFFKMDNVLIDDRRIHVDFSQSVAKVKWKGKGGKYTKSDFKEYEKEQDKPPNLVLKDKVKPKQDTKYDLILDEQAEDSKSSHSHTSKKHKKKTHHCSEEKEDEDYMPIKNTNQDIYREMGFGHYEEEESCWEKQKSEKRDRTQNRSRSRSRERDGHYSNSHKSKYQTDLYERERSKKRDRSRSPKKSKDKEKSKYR
# UniProt Q92800, whole entry: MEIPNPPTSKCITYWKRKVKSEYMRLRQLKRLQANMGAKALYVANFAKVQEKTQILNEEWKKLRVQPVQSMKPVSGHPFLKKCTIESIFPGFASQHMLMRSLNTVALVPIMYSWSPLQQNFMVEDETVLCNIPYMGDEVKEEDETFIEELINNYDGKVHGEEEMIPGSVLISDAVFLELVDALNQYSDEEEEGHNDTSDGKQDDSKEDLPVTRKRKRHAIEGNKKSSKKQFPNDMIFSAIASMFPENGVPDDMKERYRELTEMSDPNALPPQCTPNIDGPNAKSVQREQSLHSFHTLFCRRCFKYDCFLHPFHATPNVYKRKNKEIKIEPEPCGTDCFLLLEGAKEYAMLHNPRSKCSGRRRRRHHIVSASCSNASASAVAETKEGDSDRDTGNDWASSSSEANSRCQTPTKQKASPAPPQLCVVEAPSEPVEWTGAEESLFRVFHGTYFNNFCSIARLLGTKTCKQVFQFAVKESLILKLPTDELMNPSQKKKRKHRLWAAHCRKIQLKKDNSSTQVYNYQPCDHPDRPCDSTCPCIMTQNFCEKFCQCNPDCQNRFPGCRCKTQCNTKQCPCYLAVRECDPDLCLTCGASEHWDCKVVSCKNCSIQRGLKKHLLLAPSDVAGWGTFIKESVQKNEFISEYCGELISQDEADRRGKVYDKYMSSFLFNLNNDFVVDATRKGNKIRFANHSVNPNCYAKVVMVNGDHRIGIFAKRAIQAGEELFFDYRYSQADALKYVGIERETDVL
# UniProt Q8WU76: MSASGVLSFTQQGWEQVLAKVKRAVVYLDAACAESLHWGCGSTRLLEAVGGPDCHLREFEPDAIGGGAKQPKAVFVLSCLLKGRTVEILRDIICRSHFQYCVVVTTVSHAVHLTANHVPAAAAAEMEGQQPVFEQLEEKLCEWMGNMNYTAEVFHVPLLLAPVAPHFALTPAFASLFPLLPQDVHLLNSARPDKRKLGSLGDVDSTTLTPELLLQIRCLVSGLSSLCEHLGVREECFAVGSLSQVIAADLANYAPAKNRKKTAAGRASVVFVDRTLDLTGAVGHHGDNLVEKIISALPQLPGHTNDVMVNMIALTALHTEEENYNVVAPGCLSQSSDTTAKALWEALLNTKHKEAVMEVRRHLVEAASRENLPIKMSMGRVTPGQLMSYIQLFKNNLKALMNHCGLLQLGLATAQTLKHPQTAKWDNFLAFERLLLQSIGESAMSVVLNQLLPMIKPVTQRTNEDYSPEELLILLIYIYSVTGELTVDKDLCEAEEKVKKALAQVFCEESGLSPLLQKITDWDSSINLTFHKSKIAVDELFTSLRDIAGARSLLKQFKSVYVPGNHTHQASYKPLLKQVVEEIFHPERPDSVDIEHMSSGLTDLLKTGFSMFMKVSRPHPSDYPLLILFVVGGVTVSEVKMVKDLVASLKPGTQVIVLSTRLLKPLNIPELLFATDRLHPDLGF
# The list shows a part of the results. Most entries show no effect beyond the scatter of the controls.
# Compound: CN[C@@H]1C[C@H]2O[C@@](C)([C@@H]1OC)n1c3ccccc3c3c4c(c5c6ccccc6n2c5c31)C(=O)NC4 [staurosporine]
# Assay: log2 fold change of tryptic peptide abundance, ligand vs vehicle (limited proteolysis) (log2 ratio); higher = more trypsin-susceptible (destabilized)
# Settings: ligand concentration: 20 uM; sample: K562 cleared lysate; digestion: 4 min, 22 C (HT-PELSA RT4min, Orbitrap Astral)
row,Target,log2 fold change
1,"DPF2 (peptide sequence: DKPYACDICGK, peptide start residue: 206) (UniProt Q92785)",0.414
2,"MRPS27 (peptide sequence: KLPVSSLTISR, peptide start residue: 64) (UniProt Q92552)",0.907
3,"STARD8 (peptide sequence: AKNWAATSAGGSGANTR, peptide start residue: 179) (UniProt Q92502)",0.638
4,"BICD2 (peptide sequence: REPMNIYNLIAIIRDQIK, peptide start residue: 622) (UniProt Q8TD16)",0.37
5,"STAG1 (peptide sequence: LELFTNR, peptide start residue: 367) (UniProt Q8WVM7)",0.299
6,"FAM222B (peptide sequence: TVNGLDTSAQR, peptide start residue: 77) (UniProt Q8WU58)",-0.206
7,"GTF3A (peptide sequence: SLASHLSGYIPPK, peptide start residue: 320) (UniProt Q92664)",0.182
8,"SYNE2 (peptide sequence: VSRFHRR, peptide start residue: 6340) (UniProt Q8WXH0)",0.0458
9,"SEC14L1 (peptide sequence: EIMCQSLTWR, peptide start residue: 296) (UniProt Q92503)",0.479
10,"UniProt Q8WTU0 (peptide sequence: HQCSIDLK, peptide start residue: 330)",0.129
11,"DCAF4 (peptide sequence: YGIINLQSLK, peptide start residue: 199) (UniProt Q8WV16)",-0.401
12,"UniProt Q8WVV9 (peptide sequence: ETYEEDREYESQAKR, peptide start residue: 10)",-0.362
13,"NSUN6 (peptide sequence: KFETLLK, peptide start residue: 38) (UniProt Q8TEA1)",0.317
14,"PHIP (peptide sequence: GSISSTSEVHSPPNVGLR, peptide start residue: 673) (UniProt Q8WWQ0)",0.474
15,"PLEKHO2 (peptide sequence: SCALEHVTR, peptide start residue: 134) (UniProt Q8TD55)",-0.461
16,"NDRG1 (peptide sequence: EMQDVDLAEVKPLVEK, peptide start residue: 4) (UniProt Q92597)",-0.434
17,"DUSP19 (peptide sequence: KIIETWKDAR, peptide start residue: 30) (UniProt Q8WTR2)",0.954
18,"DDB2 (peptide sequence: TSEIVLRPR, peptide start residue: 12) (UniProt Q92466)",-0.816
19,"ATXN2L (peptide sequence: RFQLEELRK, peptide start residue: 539) (UniProt Q8WWM7)",0.546

# Two consecutive records out of the list so far, for reference:
row,Target,log2 fold change
8,"SYNE2 (peptide sequence: VSRFHRR, peptide start residue: 6340) (UniProt Q8WXH0)",0.0458
9,"SEC14L1 (peptide sequence: EIMCQSLTWR, peptide start residue: 296) (UniProt Q92503)",0.479

# (continued)

row,Target,log2 fold change
1,"UniProt Q8WVB3 (peptide sequence: RPSVTPLVWDDMLR, peptide start residue: 189)",-0.825
2,"NUDCD2 (peptide sequence: HVALSVGGR, peptide start residue: 51) (UniProt Q8WVJ2)",0.237
3,"HDAC2 (peptide sequence: TDVKEEDKSK, peptide start residue: 459) (UniProt Q92769)",0.6
4,"FAM172A (peptide sequence: IHVQSSSDSSDEPAEKR, peptide start residue: 211) (UniProt Q8WUF8)",-0.275
5,"HM13 (peptide sequence: EGTEASASK, peptide start residue: 362) (UniProt Q8TCT9)",0.396
6,"UniProt Q8WTR7 (peptide sequence: FICGSTLK, peptide start residue: 524)",-0.0163
7,"NUDT8 (peptide sequence: CDPADQDVVHTALR, peptide start residue: 71) (UniProt Q8WV74)",-0.102
8,"UniProt Q8WXF0 (peptide sequence: QIEIQFAQGDR, peptide start residue: 80)",-0.0759
9,"GTF3C2 (peptide sequence: GMAPNGLPNHIMAPVWK, peptide start residue: 293) (UniProt Q8WUA4)",-0.812
10,"TAF15 (peptide sequence: GGYDKDGR, peptide start residue: 188) (UniProt Q92804)",-0.295
11,"UniProt Q8TF32 (peptide sequence: DSFQQVILR, peptide start residue: 124)",-0.125
12,"IP6K1 (peptide sequence: EFTPEYK, peptide start residue: 68) (UniProt Q92551)",-0.305
13,"NEK7 (peptide sequence: RMHACTASS, peptide start residue: 294) (UniProt Q8TDX7)",0.462
14,"UniProt Q8WYQ9 (peptide sequence: VVHASTLDR, peptide start residue: 596)",0.64
15,"HSD17B8 (peptide sequence: AGVIGLTQTAAR, peptide start residue: 174) (UniProt Q92506)",0.0929
16,"PPIL4 (peptide sequence: AFFKMDNVLIDDR, peptide start residue: 297) (UniProt Q8WUA2)",0.709
17,"UniProt Q92800 (peptide sequence: HAIEGNKK, peptide start residue: 218)",0.576
18,"SCFD2 (peptide sequence: TGFSMFMK, peptide start residue: 607) (UniProt Q8WU76)",-0.117
